The term EC50 denotes the concentration giving half of the maximal effect. A higher EC50 goes with a need for much substance.

Here are results for one compound from ChEMBL document CHEMBL3102711, “Synthesis and antiproliferative action of a novel series of maprotiline analogues” (Eur J Med Chem, 2014).

The nature of test [1]: Antiproliferative activity against human DG75 cells after 72 hrs by Alamar blue assay. Type of test: functional, cell-based. The conditions noted are these: DG-75, 72 h. In a few lines:
(§1)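 MUTU-I (24 h) and DG-75 (72 h) Burkitt lymphoma cells were grown in RPMI-1640 with 10% FBS at 37 °C, seeded at 1-5×10^4 cells/well and exposed to four concentrations (screen range 1 µM–1 mM) in triplicate. Alamar Blue was added for 4-6 h at 37 °C in the dark, then fluorescence was read at 590 nm (ex 544 nm). Viability was taken relative to untreated cells after background subtraction. EC50 came from sigmoidal non-linear regression (Hill slope 1). Miconazole 10 µM was the positive control.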
(In general: Resazurin is reduced to fluorescent resorufin, in cell work by metabolically active cells.)

Test [2] in a line: Antiproliferative activity against human MUTU-I cells after 24 hrs by Alamar blue assay. The test is classed as functional, cell-based. In a few lines:
as §1

`CNCCCC12CCC(c3ccccc31)c1ccccc12` [MAPROTILINE]: the figures for the concentration giving a half-maximal response (EC50) in test [1] and in test [2] were 37.5 µM and 15.8 µM, respectively.
